The subject of the assay is Lewis lung carcinoma i.m., BDF1 mice, T/C %. The experiment in a line: NCI In Vivo Anticancer Drug Screen. Data for tumor model Lewis Lung Carcinoma (intramuscular) in B6D2F1 (BDF1) mice. Put shortly: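 Compound given to mice with transplantable tumours; survival or tumour size compared against the vehicle control group, reported as T divided by C.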

Experimental findings from PubChem BioAssay AID272 (DTP/NCI, 2004) are described below.

The list shows only some results of the screen, not a fair sample: it is rich in T/C values a quarter to a half above the control, in often repeated tests (any T/C) and in doses without a T/C. Other doses and runs of a compound stand elsewhere. T/C gives the treated animals as a percentage of the vehicle group. Schedule codes are those of the source, taken here to give the interval after Q, in days (D) or hours (H), and the number of doses after X. Some doses have a count of surviving animals in place of a T/C: the source files T/C as zero there, which appears to mark a toxic dose or a test without result, not a measured value. Some survivor counts are full or nearly so, which does not show that the dose was tolerated: survival well below the control is almost never listed, so the zero probably covers shortened survival too. Survivors were counted at the toxicity check, usually on the fifth day, unless a day is given; later deaths do not show. Some entries hold several experiments; the results are listed from low to high. Where survival is the endpoint, the PubChem record calls one and a half times the control and up active, and a quarter to a half above the control has no call in these data; cut-offs in other NCI protocols can differ. Some T/C values are followed by the survivors on the day toxicity was checked, most often the fifth; where none is given, no animal had died by that day.

With `Cc1nc(N)nc(N)c1-c1ccc(Cl)c(Cl)c1`, the T/C (T/C endpoint: mean tumor weight, dose: 4.0 mg/kg/injection, schedule: Q04DX004 (ip), vehicle: saline, evaluated on day 20, higher T/C = larger tumour) is 127 % of control; the T/C (T/C endpoint: mean tumor weight, dose: 8.0 mg/kg/injection, schedule: Q04DX004 (ip), vehicle: saline, evaluated on day 20, higher T/C = larger tumour) was 128 % of control; the T/C (T/C endpoint: median survival time, dose: 6.0 mg/kg/injection, schedule: Q04DX004 (ip), vehicle: saline, higher T/C = longer survival) was 129 % of control.

For `O=NN(CCCl)C(=O)NC1CCCCC1`, the survivor count is, setting by setting: (T/C endpoint: median survival time, dose: 4.0 mg/kg/injection, schedule: Q01DX012 (ip), vehicle: saline + alcohol, higher T/C = longer survival) 10 of 10; (T/C endpoint: median survival time, dose: 8.0 mg/kg/injection, schedule: Q01DX011 (ip), vehicle: saline with Tween-80, higher T/C = longer survival) 7 of 8; (T/C endpoint: median survival time, dose: 8.0 mg/kg/injection, schedule: Q01DX012 (ip), vehicle: saline + alcohol, higher T/C = longer survival) 6 of 10; (T/C endpoint: median survival time, dose: 14.0 mg/kg/injection, schedule: Q07DX003 (ip), vehicle: saline, higher T/C = longer survival) 8 of 8; (T/C endpoint: median survival time, dose: 16.0 mg/kg/injection, schedule: Q01DX011 (ip), vehicle: saline + alcohol, higher T/C = longer survival) 10 of 10; (T/C endpoint: median survival time, dose: 32.0 mg/kg/injection, schedule: Q01DX011 (ip), vehicle: saline + alcohol, higher T/C = longer survival) 3 of 10. For the same molecule, the survivor count was 7 of 8 (T/C endpoint: median survival time, dose: 32.0 mg/kg/injection, schedule: Q01DX011 (ip), vehicle: saline with Tween-80, higher T/C = longer survival); 10 of 10 (T/C endpoint: median survival time, dose: 32.0 mg/kg/injection, schedule: Q01DX012 (ip), vehicle: saline + alcohol, higher T/C = longer survival); 0 of 10 (T/C endpoint: median survival time, dose: 64.0 mg/kg/injection, schedule: Q01DX011 (ip), vehicle: saline + alcohol, higher T/C = longer survival); 0 of 8 (T/C endpoint: median survival time, dose: 64.0 mg/kg/injection, schedule: Q01DX011 (ip), vehicle: saline with Tween-80, higher T/C = longer survival); 1 of 10 (T/C endpoint: median survival time, dose: 64.0 mg/kg/injection, schedule: Q01DX012 (ip), vehicle: saline + alcohol, higher T/C = longer survival); 5 of 8 (T/C endpoint: median survival time, dose: 108.0 mg/kg/injection, schedule: Q07DX003 (ip), vehicle: saline, higher T/C = longer survival). Further, the T/C runs as follows: (T/C endpoint: median survival time, dose: 16.0 mg/kg/injection, schedule: Q01DX011 (ip), vehicle: saline with Tween-80, higher T/C = longer survival) 133 % of control [7 of 8 alive]; (T/C endpoint: median survival time, dose: 23.0 mg/kg/injection, schedule: Q01DX001 (sc), vehicle: saline, higher T/C = longer survival) 143 % of control; (T/C endpoint: median survival time, dose: 39.0 mg/kg/injection, schedule: Q01DX001 (ip), vehicle: saline, higher T/C = longer survival) 129 % of control; (T/C endpoint: median survival time, dose: 65.0 mg/kg/injection, schedule: Q07DX003 (ip), vehicle: saline, higher T/C = longer survival) 130 % of control.

As for `COc1cc([C@@H]2c3cc4c(cc3[C@H](O)[C@H]3COC(=O)[C@H]23)OCO4)cc(OC)c1OC`, for the setting “T/C endpoint: mean tumor weight, dose: 0.13 mg/kg/injection, schedule: Q01DX011 (ip), vehicle: Klucel (hydroxypropylcellulose) (HPC), evaluated on day 12, higher T/C = larger tumour”, the T/C was 135 % of control. Besides, the survivor count is listed as 4 of 8 (T/C endpoint: mean tumor weight, dose: 1.0 mg/kg/injection, schedule: Q01DX011 (ip), vehicle: Klucel (hydroxypropylcellulose) (HPC), higher T/C = larger tumour); 2 of 8 (T/C endpoint: mean tumor weight, dose: 2.0 mg/kg/injection, schedule: Q01DX011 (ip), vehicle: Klucel (hydroxypropylcellulose) (HPC), higher T/C = larger tumour); 6 of 8 (T/C endpoint: median survival time, dose: 1.0 mg/kg/injection, schedule: Q01DX011 (ip), vehicle: Klucel (hydroxypropylcellulose) (HPC), higher T/C = longer survival).

Consider `CO[C@H](C(=O)[C@@H](O)[C@@H](C)O)[C@@H]1Cc2cc3cc(OC4CC(OC5CC(O)C(O)C(C)O5)C(O)C(C)O4)c(C)c(O)c3c(O)c2C(=O)[C@H]1OC1CC(OC2CC(OC3CC(C)(O)C(O)C(C)O3)C(O)C(C)O2)C(O)C(C)O1` (stereo partly specified), for which the survivor count is given as 2 of 8 (T/C endpoint: mean tumor weight, dose: 1.0 mg/kg/injection, schedule: Q01DX011 (ip), vehicle: water, higher T/C = larger tumour); 7 of 10 (T/C endpoint: median survival time, dose: 0.12 mg/kg/injection, schedule: Q01DX011 (ip), vehicle: water, higher T/C = longer survival); 9 of 10 (T/C endpoint: median survival time, dose: 0.25 mg/kg/injection, schedule: Q01DX011 (ip), vehicle: water, higher T/C = longer survival); 10 of 10 (T/C endpoint: median survival time, dose: 0.5 mg/kg/injection, schedule: Q01DX011 (ip), vehicle: water, higher T/C = longer survival); 6 of 10 (T/C endpoint: median survival time, dose: 1.0 mg/kg/injection, schedule: Q01DX009 (ip), vehicle: water, higher T/C = longer survival); 4 of 10, 4 of 8, 7 of 10 (T/C endpoint: median survival time, dose: 1.0 mg/kg/injection, schedule: Q01DX011 (ip), vehicle: water, higher T/C = longer survival). Also, the survivor count was 1 of 10 and 6 of 10 (T/C endpoint: median survival time, dose: 2.0 mg/kg/injection, schedule: Q01DX009 (ip), vehicle: water, higher T/C = longer survival); 0 of 10 (T/C endpoint: median survival time, dose: 2.0 mg/kg/injection, schedule: Q01DX011 (ip), vehicle: water, higher T/C = longer survival).

As for `Nc1ncc(N)c(N)n1`, the survivor count is, setting by setting: (T/C endpoint: mean tumor weight (est.), dose: 320.0 mg/kg/injection, schedule: Q01DX011 (ip), vehicle: saline, higher T/C = larger tumour) 5 of 8; (T/C endpoint: median survival time, dose: 320.0 mg/kg/injection, schedule: Q01DX011 (ip), vehicle: saline, higher T/C = longer survival) 5 of 8.

`Cc1c[n+]2c3ccccc3c3ccccc3c2s1`: the survivor count is reported as 4 of 8 (T/C endpoint: mean tumor weight, dose: 20.0 mg/kg/injection, schedule: Q01DX011 (ip), vehicle: saline, higher T/C = larger tumour); 3 of 8 (T/C endpoint: mean tumor weight, dose: 40.0 mg/kg/injection, schedule: Q01DX011 (ip), vehicle: saline, higher T/C = larger tumour); 4 of 8 (T/C endpoint: median survival time, dose: 20.0 mg/kg/injection, schedule: Q01DX011 (ip), vehicle: saline with Tween-80, higher T/C = longer survival); 3 of 8 (T/C endpoint: median survival time, dose: 40.0 mg/kg/injection, schedule: Q01DX011 (ip), vehicle: saline with Tween-80, higher T/C = longer survival); 0 of 8 (T/C endpoint: median survival time, dose: 80.0 mg/kg/injection, schedule: Q01DX011 (ip), vehicle: saline with Tween-80, higher T/C = longer survival).

Consider `Nc1nc(=S)c2ncn(C3CC(O)C(CO)O3)c2[nH]1` (stereo unspecified), for which the T/C (T/C endpoint: mean tumor weight, dose: 1.56 mg/kg/injection, schedule: Q01DX011 (ip), vehicle: other, evaluated on day 12, higher T/C = larger tumour) is 131 % of control. Also, the survivor count is 5 of 8 (T/C endpoint: mean tumor weight, dose: 50.0 mg/kg/injection, schedule: Q01DX011 (ip), vehicle: other, higher T/C = larger tumour) and 5 of 8 (T/C endpoint: median survival time, dose: 50.0 mg/kg/injection, schedule: Q01DX011 (ip), vehicle: other, higher T/C = longer survival).

For `CCN1C=C/C(=C\C=C/c2cc[n+](CC)c3ccccc23)c2ccccc21`, for the setting “T/C endpoint: mean tumor weight (est.), dose: 0.05 mg/kg/injection, schedule: Q01DX011 (ip), vehicle: saline, higher T/C = larger tumour”, the survivor count is 1 of 8.

As for `CS(=O)(=O)OCCCCOS(C)(=O)=O`, the survivor count by setting is: (T/C endpoint: mean tumor weight, dose: 50.0 mg/kg/injection, schedule: Q01DX011 (ip), vehicle: Klucel (hydroxypropylcellulose) (HPC), higher T/C = larger tumour) 2 of 8; (T/C endpoint: median survival time, dose: 25.0 mg/kg/injection, schedule: Q01DX011 (ip), vehicle: Klucel (hydroxypropylcellulose) (HPC), higher T/C = longer survival) 6 of 8; (T/C endpoint: median survival time, dose: 50.0 mg/kg/injection, schedule: Q01DX011 (ip), vehicle: Klucel (hydroxypropylcellulose) (HPC), higher T/C = longer survival) 0 of 10 and 2 of 8; (T/C endpoint: median survival time, dose: 100.0 mg/kg/injection, schedule: Q01DX011 (ip), vehicle: Klucel (hydroxypropylcellulose) (HPC), higher T/C = longer survival) 0 of 10 and 0 of 8; (T/C endpoint: median survival time, dose: 200.0 mg/kg/injection, schedule: Q01DX011 (ip), vehicle: Klucel (hydroxypropylcellulose) (HPC), higher T/C = longer survival) 0 of 10 and 0 of 8; (T/C endpoint: median survival time, dose: 400.0 mg/kg/injection, schedule: Q01DX011 (ip), vehicle: Klucel (hydroxypropylcellulose) (HPC), higher T/C = longer survival) 0 of 10. The survivor count (T/C endpoint: median survival time, dose: 800.0 mg/kg/injection, schedule: Q01DX011 (ip), vehicle: Klucel (hydroxypropylcellulose) (HPC), higher T/C = longer survival) is recorded as 0 of 10.

In the case of `Nc1cc(S(N)(=O)=O)ccc1SSc1ccc(S(N)(=O)=O)cc1N`, the survivor count is recorded as 4 of 8 (T/C endpoint: mean tumor weight (est.), dose: 250.0 mg/kg/injection, schedule: Q01DX011 (ip), vehicle: saline with Tween-80, higher T/C = larger tumour) and 4 of 8 (T/C endpoint: median survival time, dose: 250.0 mg/kg/injection, schedule: Q01DX011 (ip), vehicle: saline with Tween-80, higher T/C = longer survival).
